Experimental data from patent publication US20180111893A1, “POLYCATIONIC AMPHIPHILES AND POLYMERS THEREOF AS ANTIMICROBIAL AGENTS AND METHODS USING SAME” (Temple University-Of The Commonwealth System of Higher …, priority 2015, published 2018).
Some results were stated once for a whole list of compounds, not compound by compound.

Legend:
[1] = system: six bacteria (SA, HA-MRSA, CA-MRSA, EF, EC, PA); test: MIC against the panel of bacteria tested; format: cell-based; settings: dye-based QACs; all six bacteria
Method: (§1) As used herein, the term “minimum inhibitory concentration (MIC)” refers to the lowest concentration of an antimicrobial agent that will inhibit the visible growth of a microorganism after overnight incubation. MIC values against bacteria, for example, the Gram-positive Staphylococcus aureus and Enterococcus faecalis and the Gram-negative Escherichia coli and Pseudomonas aeruginosa were determined by standard methods. See also P. A. Wayne, Methods for Dilution Antimicrobial Tests for Bacteria that Grow Aerobically; Approved Standard, Ninth Edition, 2012, CLSI Document M07-A9, Vol. 32 No. 2, which is incorporated by reference herein in its entirety.
The complete set of MIC values against six bacteria [Staphylococcus aureus (SA), hospital-acquired methicillin-resistant SA (HA-MRSA), community-acquired methicillin-resistant SA (CA-MRSA), Enterococcus faecalis (EF), Escherichia coli (EC), and Pseudomonas aeruginosa (PA)] is presented in Table 3, wherein multiQACs are grouped with their monoQAC counterparts. The dye-based QACs with greatest inhibition of the complete range of Gram-positive and Gram-negative bacteria featured bis- or tris-quaternization, with the optimal alkyl total ranging from 17-24 carbons. For example, comparison of two biscationic series -LMG-n,1 and LMG-n,n—evaluates the effect of total alkyl chain length in retention of efficacy against the more challenging CA-MRSA and the Gram-negative strains EC and PA.
(§2) Compounds were serially diluted two-fold from a 10% DMSO/aqueous stock solution to yield twelve test concentrations. […] Plates were incubated statically at 37° C. for 72 hours upon which time wells were evaluated visually for bacterial growth. The MIC was determined as the lowest concentration of compound resulting in no bacterial growth visible to the naked eye, based on the majority of three independent experiments. […]

[2] = system: community-acquired methicillin-resistant Staphylococcus aureus CA-MRSA (USA300-0114); test: Minimum inhibitory concentration (MIC); format: cell-based; settings: dye-based QACs; bacteria with vs without efflux pumps
Method: as §1, §2
Compounds were serially diluted two-fold from a 10% DMSO/aqueous stock solution to yield twelve test concentrations. […] Plates were incubated statically at 37° C. for 72 hours upon which time wells were evaluated visually for bacterial growth. […]

| Compound | MIC across the board [1] | increase in MIC against CA-MRSA compared to SA [2] |
| --- | --- | --- |
| CCCCCCCCCC[N+](C)(C)c1ccc(C(c2ccccc2)c2ccc([N+](C)(C)CCCCCCCCCC)cc2)cc1 [LMG-10,10] | ≤ 2 µM |  |
| CCCCCCCCCCC[N+](C)(C)c1ccc(C(c2ccccc2)c2ccc([N+](C)(C)CCCCCCCCCCC)cc2)cc1 [LMG-11,11] | ≤ 2 µM |  |
| CCCCCCCCCCCC[N+](C)(C)c1ccc(C(c2ccccc2)c2ccc([N+](C)(C)CCCCCCCCCCCC)cc2)cc1 [LMG-12,12] | ≤ 2 µM |  |
| CCCCCCCCCCCCCC[N+](CC)(CC)c1ccc(N(c2ccc(N(CC)CC)cc2)c2ccc(N(CC)CC)cc2)cc1 [TET-14,0,0] |  | up to 125 fold |
| CCCCCCCCCCCCCCCC[N+](CC)(CC)c1ccc(N(c2ccc(N(CC)CC)cc2)c2ccc(N(CC)CC)cc2)cc1 [TET-16,0,0] |  | up to 125 fold |
